Results taken from the supplement of paper PMC9254222.
Counter-ions that a name gives are not always drawn. In all, about 1,100 compounds were measured (“Renilla luciferase signal (cell health) relative to plate median”: median about 0.97, highest 2% from about 1.6 on). Only a part is listed here, and it is no random draw.

Test system: HEK293T (UBE3A T485A transfected, BAR Wnt reporter)
Assay: Renilla luciferase signal (cell health) relative to plate median (fold (linear ratio)); higher = higher Renilla signal
Settings: 24 h
Outline: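 Chemicals were robotically dosed at 0.01–100 uM for 24 h onto HEK293T cells, starting four hours after transfection with a BAR firefly luciferase Wnt reporter, TK-Renilla and an expression plasmid. The cells had been plated at 4500 cells/well in DMEM with 10% FBS at 37°C and 5% CO2. Following a Dual-Glo luciferase readout, the firefly/Renilla ratio served as the Wnt activity measure and raw Renilla as the cell health measure, both median-centred on each plate. Each value is the mean of four biological replicates.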

| SMILES | Renilla luciferase signal (concentration: 0.1 uM) | Renilla luciferase signal (concentration: 1 uM) | Renilla luciferase signal (concentration: 10 uM) | Renilla luciferase signal (concentration: 100 uM) | Renilla luciferase signal (concentration: 0.01 uM) |
| --- | --- | --- | --- | --- | --- |
| CC/C(=C(\c1ccccc1)c1ccc(OCCN(C)C)cc1)c1ccccc1.O=C(O)CC(O)(CC(=O)O)C(=O)O [Tamoxifen citrate] | 0.921 | 1.04 | 1.01 | 0.913 | – |
| CS(=O)(=O)O.Cc1nccn1-c1ccc(Sc2cccc(C3(C(N)=O)CCOCC3)c2)cc1 | 0.91 | 0.739 | 0.251 | 0.24 | – |
| O=C(N[C@@H](Cc1ccccc1)[C@@H](O)C(=O)N1C[C@@H](O)[C@@H](O)C1)c1cc2cc(Cl)ccc2[nH]1 [Ingliforib] | 0.797 | 0.711 | 0.851 | 0.148 | – |
| CC[C@]1(O)C[C@H]2C[N@](CCc3c([nH]c4ccccc34)[C@@](C(=O)OC)(c3cc4c(cc3OC)N(C=O)[C@H]3[C@@](O)(C(=O)OC)[C@H](OC(C)=O)[C@]5(CC)C=CCN6CC[C@]43[C@@H]65)C2)C1 [Vincristine] | 0.0414 | 0.0347 | 0.0574 | 0.00391 | 0.0549 |
| S=C([S-])NCCNC(=S)[S-].[Mn+2] [Maneb] | 1.01 | 0.995 | 0.968 | 0.105 | 0.874 |
| Cc1ccc(C)c(C)c1 [1,2,4-Trimethylbenzene] | 1.07 | 1.03 | 1.06 | 1.14 | – |
| CCCCCCOC(=O)CC(CC(=O)OCCCCCC)(OC(=O)CCC)C(=O)OCCCCCC [Butyryl trihexyl citrate] | 0.879 | 0.854 | 1.08 | 1.59 | – |
| CC(C)NCC(O)c1ccc(O)c(O)c1.Cl (configuration not stated) [Isoproterenol hydrochloride] | 0.796 | 0.791 | 0.784 | 0.483 | – |
| COC(=O)CSc1cc(/N=c2\sc(=O)n3n2CCCC3)c(F)cc1Cl [Fluthiacet-methyl] | 0.995 | 1.1 | 1 | 1.21 | 1.03 |
| CCc1cc(C2=C(C(=O)[O-])N(c3ccccc3C(F)(F)F)S(=O)(=O)c3ccccc32)cc2c1OCO2.[K+] [Fandosentan potassium salt] | 1.01 | 1.1 | 0.887 | 0.331 | – |
| CCCCOC(=O)CCCCC(=O)OCCCC [Dibutyl hexanedioate] | 1.09 | 1.25 | 1.23 | 1.33 | – |
| CCCCC(CC)C(=O)O (configuration not stated) [2-Ethylhexanoic acid] | 0.941 | 0.932 | 0.953 | 1.5 | – |
| CCCCCOC(=O)COc1cc(N2C(=O)C3=C(CCCC3)C2=O)c(F)cc1Cl [Flumiclorac-pentyl] | – | – | – | 1.62 | – |
| CCCN(C1CCN(C(=O)C2CCNCC2)CC1)[C@@H]1CCc2ccc(OC)cc2C1 | 1.08 | 1.1 | 1.01 | 0.0265 | – |
| c1ccc2c(c1)-c1cccc3c1c-2cc1ccccc13 [Benzo(b)fluoranthene] | 0.831 | 0.83 | 0.89 | 0.898 | – |
| NC(=O)N1c2ccccc2C=Cc2ccccc21 [Carbamazepine] | 1.08 | 1.07 | 1.04 | 0.628 | – |
| O=C(OC[C@H]1O[C@@H](OC(=O)c2cc(O)c(O)c(OC(=O)c3cc(O)c(O)c(O)c3)c2)[C@H](OC(=O)c2cc(O)c(O)c(OC(=O)c3cc(O)c(O)c(O)c3)c2)[C@@H](OC(=O)c2cc(O)c(O)c(OC(=O)c3cc(O)c(O)c(O)c3)c2)[C@@H]1OC(=O)c1cc(O)c(O)c(OC(=O)c2cc(O)c(O)c(O)c2)c1)c1cc(O)c(O)c(OC(=O)c2cc(O)c(O)c(O)c2)c1 [Tannic acid] | 1.11 | 1.02 | 0.8 | 0.0271 | – |
| CCOC(=O)c1ccc(O)cc1 [Ethylparaben] | 1.04 | 1.12 | 1 | 1 | – |
| CC(O)CC(C)(C)O (configuration not stated) [2-Methyl-2,4-pentanediol] | 1.01 | 0.927 | 0.981 | 1.25 | – |

| SMILES | Renilla luciferase signal (concentration: 0.1 uM) | Renilla luciferase signal (concentration: 1 uM) | Renilla luciferase signal (concentration: 10 uM) | Renilla luciferase signal (concentration: 100 uM) | Renilla luciferase signal (concentration: 0.01 uM) |
| --- | --- | --- | --- | --- | --- |
| CCCCCCCCCCCC[N+](C)(C)C.[Cl-] [Dodecyltrimethylammonium chloride] | 0.83 | 0.808 | 0.112 | 0.0199 | – |
| FC(F)(F)C(F)(F)C(F)(F)C(F)(F)C(F)(F)C(F)(F)CCI [1H,1H,2H,2H-Perfluorooctyl iodide] | 0.905 | 0.909 | 0.945 | 0.892 | – |
| C[C@]12C=CC(=O)C=C1CC[C@H]1[C@@H]3C[C@@H](O)[C@](O)(C(=O)CO)[C@@]3(C)C[C@H](O)[C@@]12F [Triamcinolone] | 0.961 | 0.933 | 0.933 | 1.33 | – |
| CCCC(=O)OCCC(C)C [Isopentyl butyrate] | 0.922 | 0.981 | 1.08 | 1.09 | – |
| CC(C)(C)c1cc(/C=C2\SC(=N)NC2=O)cc(C(C)(C)C)c1O.CS(=O)(=O)O [Darbufelone mesylate] | 0.798 | 0.869 | 0.484 | 0.0265 | – |
| CC(CO)OC(C)CO.CC(O)COCC(C)O (configuration not stated) [Dipropylene glycol] | 1.05 | 1.21 | 1.3 | 1.23 | – |
| CCCCCc1ccc(N)cc1 [4-Pentylaniline] | 1.09 | 1.01 | 1.05 | 0.823 | – |
| CCOC(=O)CC(CC(=O)OCC)(OC(C)=O)C(=O)OCC [Acetyltriethyl citrate] | 0.793 | 0.812 | 0.872 | 1.04 | – |
| OCC(CO)(CO)CO [Pentaerythritol] | 0.898 | 1.02 | 1.08 | 2.01 | – |
| COc1cccc([C@H](O)C2CCN(CCc3ccc(F)cc3)CC2)c1OC [Volinanserin] | 1.05 | 0.919 | 0.909 | 0.112 | – |
| CCCCC(CC)COC(=O)CCCCCCCC(=O)OCC(CC)CCCC (configuration not stated) [Bis(2-ethylhexyl) nonanedioate] | 1.12 | 1.13 | 1.08 | 1.31 | – |
| CCCCCCC(=O)OCC [Ethyl heptanoate] | 1.07 | 0.911 | 0.835 | 0.706 | – |
| CO[C@@H]1COCC[C@@H]1[NH2+][C@@H]1CC[C@@](C(=O)N2CCc3ncc(C(F)(F)F)cc3C2)(C(C)C)C1.O=C([O-])CCC(=O)O | 0.901 | 1.1 | 0.9 | 1.08 | – |
| C#C[C@]1(O)CC[C@H]2[C@@H]3CCC4=CC(=O)CC[C@@H]4[C@H]3CC[C@@]21CC [Norgestrel] | 1.24 | 1.1 | 1.06 | 0.926 | – |
| CCOc1ccc2c(c1)C(C)=CC(C)(C)N2 [Ethoxyquin] | 1 | 1.01 | 0.86 | 0.0339 | – |
| CCCOC(=O)c1ccc(C(=O)OCCC)nc1 [Dipropyl pyridine-2,5-dicarboxylate] | 0.979 | 0.98 | 0.888 | 1.2 | 1.25 |
| COc1ccc(S(=O)(=O)N2C(=O)[C@@](c3ccccc3OC)(N3C[C@H](O)C[C@H]3C(=O)N(C)C)c3cc(Cl)ccc32)c(OC)c1 [Nelivaptan] | 0.501 | 0.516 | 0.404 | 0.14 | – |
| CC(C)(C)c1cc(O)ccc1O [tert-Butylhydroquinone] | 0.651 | 0.859 | 0.989 | 0.227 | – |
| CCOC(=O)C(C)Oc1ccc(Oc2cnc3cc(Cl)ccc3n2)cc1 (configuration not stated) [Quizalofop-ethyl] | 0.758 | 0.993 | 0.953 | 1.88 | 1.1 |

| SMILES | Renilla luciferase signal (concentration: 0.1 uM) | Renilla luciferase signal (concentration: 1 uM) | Renilla luciferase signal (concentration: 10 uM) | Renilla luciferase signal (concentration: 100 uM) | Renilla luciferase signal (concentration: 0.01 uM) |
| --- | --- | --- | --- | --- | --- |
| CCCN(CCC)c1c([N+](=O)[O-])cc(C(F)(F)F)c(N)c1[N+](=O)[O-] [Prodiamine] | 0.702 | 0.892 | 0.843 | 0.67 | 0.707 |
| CCCCC(CC)CO (configuration not stated) [2-Ethyl-1-hexanol] | 0.758 | 0.775 | 0.504 | 1.25 | – |
| CCCCCCOCCO [2-(Hexyloxy)ethanol] | 0.823 | 0.921 | 0.944 | 1.23 | – |
| CCCCCCCC(=O)OC [Methyl octanoate] | 1.03 | 0.911 | 1.04 | 1.61 | – |
| O=c1[nH]c2cc([N+](=O)[O-])c([N+](=O)[O-])cc2[nH]c1=O | – | – | – | 1.96 | – |
| COc1c(N2CC3CCCNC3C2)c(F)cc2c(=O)c(C(=O)O)cn(C3CC3)c12 (configuration not stated) [Moxifloxacin] | 0.834 | 0.851 | 0.837 | 0.85 | 0.927 |
| NC(=O)N(O)[C@@H]1COc2cc(OCc3ccccc3)ccc21 | 1.18 | 1.11 | 1.11 | 0.932 | – |
| Nc1nc2nc[nH]c2c(=S)[nH]1 [6-Thioguanine] | 0.928 | 0.891 | 0.0314 | 0.0376 | – |
| c1ccc2ccccc2c1 [Naphthalene] | 1.18 | 1.14 | 1.33 | 1.64 | – |
| CC1(C)C(=O)N(Br)C(=O)N1Br [1,3-Dibromo-5,5-dimethylhydantoin] | 1.46 | 1.28 | 1.16 | 1.02 | – |
| C=CCCCCCCCCCCCC [1-Tetradecene] | 1.14 | 1.17 | 0.992 | 1.23 | – |
| CCc1nn(C2CCCCC2)c2cc([C@]3(C#N)CC[C@@H](C(=O)O)CC3)ccc12 | 0.612 | 0.739 | 0.576 | 0.262 | – |
| Cc1ccc(N)cc1O [5-Amino-2-methylphenol] | – | – | – | 1.78 | – |
| O=C1NC(=O)C(c2ccccc2)(c2ccccc2)N1 [5,5-Diphenylhydantoin] | 0.874 | 0.824 | 0.927 | 0.553 | – |
| CCCCCCC(CCCCCCCCCCC(=O)OCC(COC(C)=O)OC(C)=O)OC(C)=O (configuration not stated) [Grinstad Soft-N-Safe] | 0.819 | 0.849 | 0.893 | 0.93 | – |
| CC[C@H](C)C(=O)O[C@H]1C[C@@H](C)C=C2C=C[C@H](C)[C@H](CC[C@@H]3C[C@@H](O)CC(=O)O3)[C@H]21 [Lovastatin] | 0.972 | 0.929 | 1.08 | 0.837 | – |
| Cc1c2ccccc2c(C)c2c1ccc1ccccc12 [7,12-Dimethylbenz(a)anthracene] | 0.7 | 0.699 | 0.269 | 0.0203 | – |
| CCCCCCCCCCCCCCO [1-Tetradecanol] | 0.93 | 0.831 | 0.94 | 0.92 | – |

Some of the entries so far, with tabs.
SMILES	Renilla luciferase signal (concentration: 0.1 uM)	Renilla luciferase signal (concentration: 1 uM)	Renilla luciferase signal (concentration: 10 uM)	Renilla luciferase signal (concentration: 100 uM)	Renilla luciferase signal (concentration: 0.01 uM)
CCCCCCCC(=O)OC [Methyl octanoate]	1.03	0.911	1.04	1.61	–
O=c1[nH]c2cc([N+](=O)[O-])c([N+](=O)[O-])cc2[nH]c1=O	–	–	–	1.96	–
CCCCCCC(CCCCCCCCCCC(=O)OCC(COC(C)=O)OC(C)=O)OC(C)=O (configuration not stated) [Grinstad Soft-N-Safe]	0.819	0.849	0.893	0.93	–
